# PubChem BioAssay AID540276 (National Center for Advancing Translational Sciences (NCATS), 2011)
# “And” between values parts separate entries of the source, which are not always exact repeats. Equal values may be shown once. About 5,400 (1.8%) of roughly 300,000 compounds were called active. Inconclusive means that the source gave no clear call. Such entries were picked first, then a sample of the others. Calls follow the shape of the full dose curve; tested in HEK293 cells. A potency beside an inconclusive call is a rough fit, not a confirmed value.
# Assay: qHTS for inhibitors of binding or entry into cells for Marburg Virus
# Conditions: Marburg virus pseudotyped entry inhibition, cell reporter; series mostly up to 37.8 µM
# Potency is read from the fitted curve at half-maximal effect.
row,SMILES,Potency
1,Cc1ccc2c(c1)C1CN(C)CCC1N2C(=O)COc1ccccc1F (stereo unspecified),"inconclusive: 7.94 µM [inhibitor, partial curve]"
2,Cc1ccc(NC(=O)CO/N=C/c2ccccc2C)c(C)c1,"inconclusive: 3.55 µM [inhibitor, partial curve, poor fit]"
3,Cc1ccc2[nH]c3c(N4CCN(Cc5ccccc5)CC4)ncnc3c2c1,"inconclusive: 16.4 µM [inhibitor, partial curve, poor fit]"
4,O=C1CC(c2ccccc2)c2ccccc21 (stereo unspecified),"inconclusive: 1.41 µM [inhibitor, partial curve, poor fit]"
5,CCN1C(=O)c2cccc3c(NC(=O)c4ccc(S(=O)(=O)N(C)C)cc4)ccc1c23,inactive
6,CC(=O)Oc1cc2oc(=O)cc(C)c2cc1Cl,"inconclusive: 5.62 µM [activator, single point]"
7,CCOC(=O)c1c(NC(=O)CSc2nnc(-c3ccco3)o2)sc(C(C)=O)c1C,"inconclusive: 0.447 µM [activator, partial curve, poor fit]"
8,CC1CN(C(=S)NC(=O)c2cccc([N+](=O)[O-])c2)CC(C)O1 (stereo unspecified),"inconclusive: 1.26 µM [activator, partial curve, poor fit]"
9,CNc1oc(-c2ccco2)nc1C#N,inactive
10,COc1ccccc1CNC(=O)[C@@H]1CCCN1S(=O)(=O)c1ccccc1F,inactive
11,CCCCN(CC)CCCNC(=O)Nc1sc2nc3n(c(=O)c2c1C)CCC(C)CC3 (stereo unspecified),active: 10 µM
12,Cc1ccccc1NS(=O)(=O)c1ccc(NC(=O)c2nc3ncccn3n2)cc1,inactive
13,CC#CC[N+](C)(C)CCCCCCCCCCCC,active: 10.3 µM
14,CN(C)P1(N(C)C)=Nc2c(c(N)nn2C)C(c2ccccc2)=N1,"inconclusive: 20 µM [activator, partial curve, poor fit]"
15,C/C(=N/NC(=O)CCc1ccccc1)c1ccc2c(c1)OCO2,"inconclusive: 5.62 µM [inhibitor, single point]"
16,COc1ccc(C(=O)NCC(c2ccco2)N2CCc3ccccc32)cc1OC (stereo unspecified),"inconclusive: 7.94 µM [inhibitor, partial curve]"
17,O=C(O)COc1ccccc1/C=C1\SC(=O)N(Cc2ccc(F)cc2)C1=O,"inconclusive: 5.62 µM [activator, single point]"
18,O=c1cc(CSc2ccccc2)nc(-c2ccccc2)[nH]1,inactive
19,COc1cc(OC)c2cc(C(=O)N/N=C/c3cccc(OC)c3O)[nH]c2c1,active: 4.47 µM
20,CCn1ccc(C(=O)NC2CCCC2)n1,inactive
21,Cc1ccc(C(=O)/C=C/c2cn(CC(O)CN3CCOCC3)c3ccccc23)cc1 (stereo unspecified),"inconclusive: 10 µM [inhibitor, partial curve, poor fit]"
22,Cc1ccc(CN2CCNC(=O)C2CC(=O)NC2CCCCCC2)o1 (stereo unspecified),inactive
23,CCN(CC)CCCN(C(=O)c1cccs1)c1nc(-c2ccc(OC)cc2)cs1,"inconclusive: 7.3 µM [inhibitor, partial curve, poor fit]"
24,Cc1ccc(CC(=O)Nc2cc(C)on2)cc1,inactive

# In another format: entries from further up.
row | SMILES | Potency
16 | COc1ccc(C(=O)NCC(c2ccco2)N2CCc3ccccc32)cc1OC (stereo unspecified) | inconclusive: 7.94 µM [inhibitor, partial curve]
17 | O=C(O)COc1ccccc1/C=C1\SC(=O)N(Cc2ccc(F)cc2)C1=O | inconclusive: 5.62 µM [activator, single point]
22 | Cc1ccc(CN2CCNC(=O)C2CC(=O)NC2CCCCCC2)o1 (stereo unspecified) | inactive

# Later entries.

row,SMILES,Potency
1,Cc1nc2ccc(S(=O)(=O)N(C)CC(=O)Nc3cccc(C(F)(F)F)c3)cc2s1,inactive
2,COc1ccc2[nH]c(=O)c(CN(Cc3nnnn3Cc3ccco3)C3CCCCC3)cc2c1,inactive
3,CC(NC(=O)/C(=C/c1ccc(OC(F)F)cc1)c1ccccc1)c1ccccc1 (stereo unspecified),"inconclusive: 35.5 µM [inhibitor, single point]"
4,Cc1cccnc1NC(=O)CCCc1c[nH]c2ccccc12,inactive
5,O=C1CN(S(=O)(=O)c2ccccc2Cl)CCN1,"inconclusive: 10 µM [activator, partial curve]"
6,CCCSc1nc(N)nc2c1ncn2C1OC(CO)C(O)C1O (stereo unspecified),inactive
7,O=C(Nc1ccc(Cl)cc1C(=O)NCc1cccnc1)c1ccc(Cl)cc1Cl,"inconclusive: 35.5 µM [inhibitor, single point]"
8,O=C(CCSc1ccccc1Cl)Nc1cccc([N+](=O)[O-])c1,"inconclusive: 2.24 µM [inhibitor, partial curve, poor fit]"
9,O=C(Cc1sc(-c2ccccc2Cl)nc1-c1ccccc1)Nc1ccccc1,"inconclusive: 7.08 µM [inhibitor, full curve, poor fit]"
10,Fc1ccc(/C=N/NC2=Nc3cccc4cccc2c34)cc1,"inconclusive: 7.08 µM [inhibitor, full curve, poor fit]"
11,O=C(CSc1nc2ccccc2c(=O)n1-c1ccccc1)N1CCc2ccccc2C1,"inconclusive: 14.1 µM [inhibitor, single point]"
12,COc1cccc(C2C(C(=O)Nc3ccc(C)cc3C)=C(C)Nc3nc4ccccc4n32)c1OC (stereo unspecified),"inconclusive: 15.8 µM [inhibitor, partial curve, poor fit]"
13,O=C(CCCC(=O)N(CC(=O)NC1CCCCC1)c1ccc(F)cc1)Nc1ccccn1,"inconclusive: 6.31 µM [activator, partial curve, poor fit]"
14,CC(C)COc1ccc(C(=O)NCc2ccco2)cc1,inactive
15,O=C(CC1C(=O)NCCN1Cc1cccc(F)c1)NCCCCCN1CCOCC1 (stereo unspecified),"inconclusive: 0.794 µM [inhibitor, single point]"
16,COc1ccc(N=C2O/C(=C/c3sc(=S)n(CC4CCCO4)c3O)N=C2C#N)cc1 (stereo unspecified),"inconclusive: 10 µM [inhibitor, partial curve, poor fit]"
17,CCCOc1ccccc1N/C(N)=N/c1nc(C)cc(C)n1,"inconclusive: 1 µM [inhibitor, full curve, poor fit]"
18,CCC(C)(C)C1CCC(NC(=O)N2CCN(c3ccccc3O)CC2)CC1 (stereo unspecified),"inconclusive: 28.2 µM [inhibitor, partial curve, poor fit]"
19,O=C(CC1C(=O)NCCN1Cc1ccc(-c2ccccc2)cc1)NCC1CC1 (stereo unspecified),"inconclusive: 15.8 µM [inhibitor, single point]"
20,COC(=O)C1=NN(c2ccccc2)C2(S1)SC(C(C)=O)=C(C)N2c1ccccc1 (stereo unspecified),inactive
21,CCCN(CC1CC1)c1cc2c(c3c1ccn3C)C1CCC2C1 (stereo unspecified),active: 3.15 µM
22,COc1ccc(NC(=O)CSc2nnc(Cc3ccc(C)cc3)c(=O)n2N)cc1,"inconclusive: 14.1 µM [inhibitor, single point]"
23,COc1ccc(OC)c(/C=N/Nc2nncn2/N=C/c2cc(OC)ccc2OC)c1,"inconclusive: 10 µM [inhibitor, partial curve, poor fit]"
24,CCCc1ccc(OC(=O)c2ccc(O)cc2Cl)cc1,"inconclusive: 35.5 µM [inhibitor, single point]"

# Rewritten tab-delimited: part of the list above.
row	SMILES	Potency
1	Cc1nc2ccc(S(=O)(=O)N(C)CC(=O)Nc3cccc(C(F)(F)F)c3)cc2s1	inactive
2	COc1ccc2[nH]c(=O)c(CN(Cc3nnnn3Cc3ccco3)C3CCCCC3)cc2c1	inactive
3	CC(NC(=O)/C(=C/c1ccc(OC(F)F)cc1)c1ccccc1)c1ccccc1 (stereo unspecified)	inconclusive: 35.5 µM [inhibitor, single point]
4	Cc1cccnc1NC(=O)CCCc1c[nH]c2ccccc12	inactive

# The results go on:

row,SMILES,Potency
1,c1ccc(CN2CCN(c3ncccn3)CC2)cc1,inactive
2,Cc1cc(C)c(S(=O)(=O)c2ccccc2)c(N2CCOCC2)n1,"inconclusive: 5.62 µM [activator, single point]"
3,CCc1ccc(OCCn2cccn2)cc1,"inconclusive: 35.5 µM [inhibitor, single point]"
4,COc1ccc(CC(=O)NCc2n[nH]c(=S)n2-c2cccc(C)c2)cc1,"inconclusive: 6.31 µM [inhibitor, single point]"
5,Cc1ccc(Nc2c(-c3ccco3)nc3ccccn23)cc1,"inconclusive: 32.6 µM [activator, single point]"
6,COc1ccc(Nc2ncc(C(=O)N3CCN(c4ccc(F)cc4)CC3)c3ccccc23)cc1,"inconclusive: 29.1 µM [inhibitor, single point] and inconclusive: 1 µM [inhibitor, single point]"
7,Cc1ccc(-c2cc(-c3ccc(F)cc3)c(C#N)c(N)n2)o1,"inconclusive: 11.2 µM [inhibitor, partial curve, poor fit]"
8,COc1ccc(C(C(=O)NC2CCCC2)N(C(=O)c2snc(-c3ccc(F)cc3)c2N)c2cccc(F)c2)cc1 (stereo unspecified),inactive
9,COC(=O)c1[nH]c(=O)c2ccccc2c1O,"inconclusive: 5.62 µM [activator, single point]"
10,Cc1cc(Oc2ccc(-c3ccccc3)cc2)nc(N2CCOCC2)n1,active: 11.2 µM
11,CC(C)CC(=O)N1CCN(S(=O)(=O)c2ccc(Cl)cc2)CC1,inactive
12,CCc1nc2cc3sc(CC)nc3cc2s1,"inconclusive: 8.91 µM [activator, partial curve, poor fit]"
13,NS(=O)(=O)c1ccc2nc(NC(=O)c3ccc4ncsc4c3)sc2c1,inactive
14,CCN(CC(=O)NCc1ccc(Cl)cc1)C(=O)c1ccc(S(=O)(=O)NCc2ccco2)cc1,inactive
15,CCOc1ccc(NC(=O)[C@@H](NC(=O)OCc2ccccc2)[C@@H](C)CC)cc1,inactive
16,O=C(CCC(=O)Nc1ccccc1Cl)NNC(=O)C1CCCCC1,"inconclusive: 6.31 µM [inhibitor, single point]"
17,CCOc1ccc(CNCc2cccnc2)cc1,inactive
18,CCCOC(=O)c1ccc(NC(=O)C(CC)CC)cc1,"inconclusive: 8.91 µM [activator, partial curve, poor fit]"
19,COc1ccc(-n2nc(C(F)(F)F)cc2-c2ccc(Cl)cc2)cc1,"inconclusive: 1.41 µM [inhibitor, full curve, poor fit]"
20,Cc1ccc(C)c(NC(=O)CN(C)C(=O)CSC(C)C(=O)Nc2cc(C)on2)c1 (stereo unspecified),inactive
21,CC1(C)Cc2cccc(OCC(=O)N3CCN(c4cccc(C(F)(F)F)c4)CC3)c2O1,inactive
22,CCN(CC)CCNC(=O)c1ccc(NC(=O)c2cc(S(=O)(=O)N3CCCCC3)ccc2C)cc1,"inconclusive: 35.5 µM [inhibitor, single point]"
23,COc1ccccc1/C=C/c1nc(C#N)c(NCCc2ccccc2)o1,inactive
